In PubChem BioAssay AID2662 (National Center for Advancing Translational Sciences (NCATS), 2010):
In all, about 290,000 compounds went through this assay and about 110 (0.038%) were called active. Inconclusive means that the source gave no clear call. Such entries were picked first, then a sample of the others. The call rests on the fitted dose curve; in most records, active means well fitted inhibition curve with a large enough effect in the polarisation, with a control signal flat (not every such curve was filed as active); inconclusive means small, poorly fitted or top-dose-only effect, or effect the other way, or a change in a side signal; inactive means no such curve, though single readings can be large or run the other way; the % refers to the polarisation. Potencies beside an inconclusive call are fits to weak or partial responses and may not hold up. “Side channel” marks fits to a control or component signal instead of the main read-out.

Sequences of proteins named here, by UniProt entry; tags and fusion partners are left off.
UniProt Q03164, whole entry, looked up: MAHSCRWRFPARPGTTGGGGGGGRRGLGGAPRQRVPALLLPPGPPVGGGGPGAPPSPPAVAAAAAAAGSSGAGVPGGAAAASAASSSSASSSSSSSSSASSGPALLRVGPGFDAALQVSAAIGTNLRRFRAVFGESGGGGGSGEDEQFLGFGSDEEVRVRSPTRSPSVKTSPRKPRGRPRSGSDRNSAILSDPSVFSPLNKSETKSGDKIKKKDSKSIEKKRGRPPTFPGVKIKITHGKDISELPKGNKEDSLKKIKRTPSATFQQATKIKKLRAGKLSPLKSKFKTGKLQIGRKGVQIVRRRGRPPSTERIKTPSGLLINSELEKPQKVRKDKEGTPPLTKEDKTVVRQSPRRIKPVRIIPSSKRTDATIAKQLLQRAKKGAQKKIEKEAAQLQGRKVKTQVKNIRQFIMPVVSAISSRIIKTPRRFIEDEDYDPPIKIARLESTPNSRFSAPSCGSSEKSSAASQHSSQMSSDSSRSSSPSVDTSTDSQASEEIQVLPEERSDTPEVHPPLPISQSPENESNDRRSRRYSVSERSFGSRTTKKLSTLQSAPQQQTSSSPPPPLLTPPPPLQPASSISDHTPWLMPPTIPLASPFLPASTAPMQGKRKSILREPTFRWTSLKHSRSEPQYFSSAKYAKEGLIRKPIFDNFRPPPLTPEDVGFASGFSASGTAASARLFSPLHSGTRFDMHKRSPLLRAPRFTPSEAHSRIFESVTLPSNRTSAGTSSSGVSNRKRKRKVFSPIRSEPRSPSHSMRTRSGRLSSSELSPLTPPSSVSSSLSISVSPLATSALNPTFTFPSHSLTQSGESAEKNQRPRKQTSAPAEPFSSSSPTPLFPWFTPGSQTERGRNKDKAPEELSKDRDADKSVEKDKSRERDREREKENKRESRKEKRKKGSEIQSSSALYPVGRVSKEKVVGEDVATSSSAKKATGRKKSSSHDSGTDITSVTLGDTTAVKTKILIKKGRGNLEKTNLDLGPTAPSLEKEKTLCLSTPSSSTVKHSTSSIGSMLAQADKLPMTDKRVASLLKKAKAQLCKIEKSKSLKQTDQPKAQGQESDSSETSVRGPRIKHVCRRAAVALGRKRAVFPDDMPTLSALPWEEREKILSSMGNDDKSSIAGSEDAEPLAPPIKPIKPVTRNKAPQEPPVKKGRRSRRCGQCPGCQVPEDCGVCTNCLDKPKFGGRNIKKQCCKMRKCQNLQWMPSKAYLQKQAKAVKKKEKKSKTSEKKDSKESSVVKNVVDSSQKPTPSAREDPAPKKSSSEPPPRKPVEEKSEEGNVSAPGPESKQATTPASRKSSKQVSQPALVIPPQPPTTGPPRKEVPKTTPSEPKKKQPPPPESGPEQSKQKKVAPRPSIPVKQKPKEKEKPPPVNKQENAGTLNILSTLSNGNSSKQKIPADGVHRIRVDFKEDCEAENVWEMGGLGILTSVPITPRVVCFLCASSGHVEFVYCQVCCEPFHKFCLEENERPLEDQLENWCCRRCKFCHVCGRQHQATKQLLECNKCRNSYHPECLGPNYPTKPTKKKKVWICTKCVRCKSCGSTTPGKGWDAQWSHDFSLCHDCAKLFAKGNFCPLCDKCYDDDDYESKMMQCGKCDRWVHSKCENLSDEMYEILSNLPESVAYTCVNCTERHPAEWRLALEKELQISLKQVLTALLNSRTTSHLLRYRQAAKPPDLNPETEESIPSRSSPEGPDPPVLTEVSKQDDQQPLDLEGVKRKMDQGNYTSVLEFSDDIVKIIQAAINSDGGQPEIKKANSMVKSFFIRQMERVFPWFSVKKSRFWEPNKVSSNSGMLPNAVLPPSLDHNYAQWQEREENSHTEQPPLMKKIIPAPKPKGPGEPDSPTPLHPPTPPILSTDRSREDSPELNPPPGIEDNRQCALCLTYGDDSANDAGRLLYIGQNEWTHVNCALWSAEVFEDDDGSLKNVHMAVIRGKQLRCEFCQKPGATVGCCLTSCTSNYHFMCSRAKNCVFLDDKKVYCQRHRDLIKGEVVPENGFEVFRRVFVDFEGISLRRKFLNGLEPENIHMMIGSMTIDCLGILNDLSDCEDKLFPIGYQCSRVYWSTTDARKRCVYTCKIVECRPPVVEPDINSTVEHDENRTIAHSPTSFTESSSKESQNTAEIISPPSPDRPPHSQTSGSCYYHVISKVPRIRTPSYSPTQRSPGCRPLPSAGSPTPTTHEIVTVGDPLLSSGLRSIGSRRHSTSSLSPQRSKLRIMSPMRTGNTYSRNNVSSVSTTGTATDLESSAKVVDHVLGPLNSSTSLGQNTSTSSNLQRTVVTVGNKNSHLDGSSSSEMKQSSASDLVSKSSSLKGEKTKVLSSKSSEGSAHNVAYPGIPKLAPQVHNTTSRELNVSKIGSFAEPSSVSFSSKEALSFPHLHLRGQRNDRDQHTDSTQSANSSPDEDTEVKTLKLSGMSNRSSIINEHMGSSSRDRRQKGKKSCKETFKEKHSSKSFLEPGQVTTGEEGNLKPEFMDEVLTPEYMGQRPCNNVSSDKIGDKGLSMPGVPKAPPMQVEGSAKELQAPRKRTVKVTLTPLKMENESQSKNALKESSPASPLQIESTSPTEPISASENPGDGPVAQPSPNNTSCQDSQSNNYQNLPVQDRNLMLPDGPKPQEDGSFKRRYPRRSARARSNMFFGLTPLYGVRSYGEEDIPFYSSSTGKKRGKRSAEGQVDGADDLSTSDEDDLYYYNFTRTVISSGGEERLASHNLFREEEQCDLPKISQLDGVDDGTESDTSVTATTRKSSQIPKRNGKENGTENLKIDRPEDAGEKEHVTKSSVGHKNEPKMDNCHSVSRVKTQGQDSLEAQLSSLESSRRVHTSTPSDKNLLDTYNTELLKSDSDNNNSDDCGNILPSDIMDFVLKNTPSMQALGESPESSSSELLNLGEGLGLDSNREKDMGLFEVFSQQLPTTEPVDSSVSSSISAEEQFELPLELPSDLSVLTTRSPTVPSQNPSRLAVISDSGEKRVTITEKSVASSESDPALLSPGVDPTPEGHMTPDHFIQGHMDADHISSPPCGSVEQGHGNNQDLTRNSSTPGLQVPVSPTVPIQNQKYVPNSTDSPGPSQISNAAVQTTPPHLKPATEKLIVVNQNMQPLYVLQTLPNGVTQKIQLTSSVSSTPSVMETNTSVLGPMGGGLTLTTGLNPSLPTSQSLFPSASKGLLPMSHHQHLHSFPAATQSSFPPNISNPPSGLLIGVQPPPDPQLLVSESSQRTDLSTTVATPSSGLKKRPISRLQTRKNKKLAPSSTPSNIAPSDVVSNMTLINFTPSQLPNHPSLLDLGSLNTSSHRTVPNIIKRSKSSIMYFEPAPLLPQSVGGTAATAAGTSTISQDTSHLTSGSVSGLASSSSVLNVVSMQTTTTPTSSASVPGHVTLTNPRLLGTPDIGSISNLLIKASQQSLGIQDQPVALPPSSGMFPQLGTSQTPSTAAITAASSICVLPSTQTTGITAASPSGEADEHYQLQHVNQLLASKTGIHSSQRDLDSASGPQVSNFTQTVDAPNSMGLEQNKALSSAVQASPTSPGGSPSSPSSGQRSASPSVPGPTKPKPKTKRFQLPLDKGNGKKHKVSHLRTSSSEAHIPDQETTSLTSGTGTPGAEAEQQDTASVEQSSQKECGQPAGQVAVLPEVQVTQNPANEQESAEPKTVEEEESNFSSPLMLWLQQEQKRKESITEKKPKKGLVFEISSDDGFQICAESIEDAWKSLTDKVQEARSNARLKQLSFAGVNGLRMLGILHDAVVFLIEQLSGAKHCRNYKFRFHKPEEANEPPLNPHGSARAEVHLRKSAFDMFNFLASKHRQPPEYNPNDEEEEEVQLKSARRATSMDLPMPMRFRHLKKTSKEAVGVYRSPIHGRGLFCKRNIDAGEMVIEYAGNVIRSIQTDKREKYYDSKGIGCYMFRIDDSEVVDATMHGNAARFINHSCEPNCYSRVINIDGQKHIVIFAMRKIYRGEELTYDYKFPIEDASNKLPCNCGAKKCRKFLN

What follows are compounds tested against Histone-lysine N-methyltransferase 2A (Homo sapiens) (UniProt Q03164) (assay: qHTS Fluorescence Polarization Assay for Inhibitors of MLL CXXC domain - DNA interaction). Details: MLL-CXXC / FITC-HOXA9 DNA fluorescence polarization; activity change, negative = inhibition: at 115 µM (top of the series).
Procedure, shortened: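 Fluorescence polarization: 7 uM MLL-CXXC (stock) preincubated 5 min with compounds, then 50 nM fluorescein-HOX-A9 DNA (stock) added; 30 min ambient. Buffer 50 mM Tris-HCl pH 7.5, 50 mM NaCl, 1 mM DTT, 0.05% BSA.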
Potency means the concentration at half of the fitted maximal effect.

SMILES | activity change, negative = inhibition | Potency
O=c1[nH]c2cc3c(cc2cc1CN(CC1CCCO1)S(=O)(=O)c1ccc(Cl)cc1)OCCO3 (stereo unspecified) | inactive: 35.4% | –
CN(C)CCCN(C(=O)c1ccc(Cl)s1)c1nc2cc3c(cc2s1)OCO3 | – | inconclusive: 14.1 µM [quencher, side channel, partial curve]
O=C(CSc1nnc(SCc2cccc3ccccc23)s1)c1ccc2c(c1)OCO2 | inactive: -0.511% | –
CCOc1ccc(CNC(=O)CCS(=O)(=O)Cc2ccccc2C)cc1OC | inactive: -3.46% | –
CSc1nnc(N2C(=O)C(O)=C(C(=O)c3ccco3)C2c2cccc(Cl)c2)s1 (stereo unspecified) | – | inconclusive: 3.98 µM [fluorescent, side channel, partial curve]
Cc1cccc(N=Nc2c(O)[nH]c3ccc(Br)cc23)c1 | – | inconclusive: 11.2 µM [fluorescent, side channel, partial curve]
Cc1ccc(-c2nc3ccccc3c(=O)n2NC(=O)c2cccs2)cc1 | – | inconclusive: 20 µM [fluorescent, side channel, partial curve, poor fit]
CC(C)Cc1ccc(S(=O)(=O)Nc2ccc3[nH]c(=O)[nH]c3c2)cc1 | – | inconclusive: 63.1 µM [fluorescent, side channel, partial curve]
CCN1CCN(C(=O)C2CCCN(c3ncnc4c3nc3n4CCCCC3)C2)CC1 (stereo unspecified) | – | inconclusive: 63.1 µM [fluorescent, side channel, single point]
O=C(NCCc1c[nH]c2ccccc12)c1ccc2c(c1)OCO2 | inactive: -10.3% | –
Cc1ccc(Cn2ccc(NC(=O)c3nn(C)cc3Cl)n2)cc1 | inactive: -1.33% | –
O=S(=O)(O)c1cc(O)c2c(O)c(N=Nc3cc(Cl)ccc3O)c(S(=O)(=O)O)cc2c1 | inactive: 1.23% | –
C(#CC12CC3CC(CC(C3)C1)C2)CN1CCOCC1 | inactive: 2.98% | –
Cc1cc(-c2ccc(N=Nc3ccc4c(S(=O)(=O)O)cc(S(=O)(=O)O)c(N)c4c3O)c(C)c2)ccc1N=Nc1ccc2c(S(=O)(=O)O)cc(S(=O)(=O)O)c(N)c2c1O | inactive: 3.72% | –
COc1ccc(C(c2c(C)n(C)n(-c3ccccc3)c2=O)c2c(C)n(C)n(-c3ccccc3)c2=O)cc1OC | inactive: 1.84% | –
S=c1[nH]nc(-c2ccccn2)n1/N=C/c1c(Cl)cccc1Cl | inactive: -17.6% | –
Cc1cc(C)nc(N/N=C/C2=C(N3CCOCC3)C(=C\c3ccc(Cl)cc3)/CC2)n1 | – | inconclusive: 5.62 µM [fluorescent, full curve]
Clc1ccc(OCCCNCc2ccccc2)c2ccccc12 | – | inconclusive: 25.1 µM [quencher, side channel, partial curve]
CCOc1ccc(-c2nc(C#N)c(NCc3ccc4c(c3)OCO4)o2)cc1 | inactive: -6.61% | –
CCC(=O)Nc1cccc(NC(=O)c2ccc(Br)cc2)c1 | – | inconclusive: 63.1 µM [fluorescent, side channel, single point]
CCc1nnc(NS(=O)(=O)c2ccc(NC(=O)COc3ccc(Cl)c(C)c3)cc2)s1 | inactive: 4.62% | –

SMILES | activity change, negative = inhibition | Potency
CSc1cccc(NC(=O)Nc2ccccc2C(N)=O)c1 | – | inconclusive: 3.16 µM [fluorescent, side channel, partial curve]
NS(=O)(=O)c1ccc(N=Nc2ccc(O)c3ncccc23)cc1 | – | inconclusive: 20 µM [quencher, side channel, partial curve, poor fit]
Cn1ccsc1=NC(=O)c1ccc(Cl)c([N+](=O)[O-])c1 | – | inconclusive: 35.5 µM [fluorescent, side channel, single point]
O=[N+]([O-])c1ccccc1/C=N\Nc1nccs1 | inactive: 5.65% | –
Cc1[nH]nc2c1C(c1ccc(F)cc1)C(C#N)=C(N)O2 (stereo unspecified) | inactive: -3% | –
Cc1ccc(N2C(=O)CSC2=S)cc1C | – | inconclusive: 100 µM [fluorescent, side channel, partial curve, poor fit]
CC(C)(C)c1nnc(NS(=O)(=O)c2cc(Cl)ccc2Cl)s1 | – | inconclusive: 44.7 µM [inhibitor, single point]
CC(C)c1ccc(N2C(=O)/C(=C/N(C)C)SC2=S)cc1 | – | inconclusive: 12.6 µM [fluorescent, side channel, full curve, poor fit]
CCS(=O)(=O)N1N=C(c2cccc(NS(C)(=O)=O)c2)CC1c1cccs1 (stereo unspecified) | – | inconclusive: 70.8 µM [fluorescent, side channel, single point]
COc1cc(/C=C2\SC(=S)N(Nc3ncc(C(F)(F)F)cc3Cl)C2=O)ccc1O | – | inconclusive: 50.1 µM [fluorescent, side channel, partial curve]
COc1cc(/C=C2/C(=O)N(c3ccc(C(=O)O)cc3)N=C2C)cc(OC)c1O | inactive: 31.4% | –
CC(=O)c1c(O)c(C)c(-c2ccccc2)n(-c2ccccc2)c1=O | inactive: -0.579% | –
CSc1cccc(CN2CCCC(C(=O)Nc3cccc(-n4cccn4)c3)C2)c1 (stereo unspecified) | – | inconclusive: 28.2 µM [fluorescent, side channel, partial curve]
Cc1ccc(NC(=O)CSc2ccccn2)cc1S(=O)(=O)N1CCOCC1 | – | inconclusive: 31.6 µM [fluorescent, side channel, partial curve]
Cc1ccc(C(=O)OCC(=O)Nc2c(C)n(C)n(-c3ccccc3)c2=O)cc1[N+](=O)[O-] | – | inconclusive: 17.8 µM [fluorescent, side channel, partial curve]
CCN(CC)c1ccc(/C=c2\sc3nnc(-c4ccccc4Cl)n3c2=O)cc1 | – | inconclusive: 28.2 µM [fluorescent, side channel, partial curve, poor fit]
Clc1ccc(-c2nnc3ccccn23)cc1 | – | inconclusive: 14.1 µM [inhibitor, single point]
CC1=NN(c2cccc(C(=O)O)c2)C(=O)/C1=C\C=C/c1ccccc1 | – | inconclusive: 39.8 µM [inhibitor, single point]
O=C(N/N=C/c1cc([N+](=O)[O-])ccc1O)C1C2CCCCC21 (stereo unspecified) | inactive: -4.1% | –
COc1ccc(CNC(=O)CCC(=O)Nc2nnc(C(F)(F)F)s2)cc1 | – | inconclusive: 7.94 µM [fluorescent, side channel, single point]
O=C(NCc1ccccc1)N1CCN(c2ccc(Cl)c(Cl)c2)CC1 | – | inconclusive: 39.8 µM [fluorescent, side channel, single point]

SMILES | activity change, negative = inhibition | Potency
COC(=O)C1=CN(Cc2ccccc2)C=C(C(=O)OC)C1c1cc(F)ccc1F | – | inconclusive: 1.58 µM [fluorescent, side channel, full curve]
O=C(N/N=C/c1ccccn1)c1ccc(Cl)c(Cl)c1 | – | inconclusive: 14.1 µM [quencher, side channel, single point]
Cc1cccc(/N=C/c2c(O)cc(C)oc2=O)n1 | – | inconclusive: 31.6 µM [fluorescent, side channel, partial curve]
Cc1cc(C=C2C(=O)c3ccccc3C2=O)c(C)n1-c1ccccc1 | – | inconclusive: 35.5 µM [fluorescent, side channel, single point]
CCOc1ccc(-c2csc(NC(=O)CSC3=NC(=O)CN3C(C)=O)n2)c2ccccc12 | inactive: 12.7% | –
COCCNC(=O)/C(C#N)=C/c1c(N2CCN(c3ccccc3)CC2)nc2ccccn2c1=O | – | inconclusive: 89.1 µM [fluorescent, side channel, single point]
Cc1cc2nc(-c3ccc[nH]c3=O)n(Cc3ccc(F)cc3)c2cc1C | – | inconclusive: 10 µM [inhibitor, single point]
c1ccc2[nH]c3cc4ncnc4cc3nc2c1 | – | inconclusive: 14.1 µM [inhibitor, single point]
CCOn1c(=O)c[n+]([O-])c2ccccc21 | – | inconclusive: 11.2 µM [fluorescent, side channel, partial curve]
COC(=O)c1ccc(-n2nnnc2SCC(=O)Nc2ccccc2C(=O)OC)cc1 | – | inconclusive: 1.41 µM [fluorescent, side channel, full curve, poor fit]
COc1ccc(N2C(=O)C3CCCCC3C2=O)cc1NC(=O)c1ccccc1 (stereo unspecified) | – | inconclusive: 31.6 µM [inhibitor, partial curve]
CCCCN(C(=O)c1cccc(S(=O)(=O)N2CC(C)OC(C)C2)c1)c1c(N)n(CC(C)C)c(=O)[nH]c1=O (stereo unspecified) | – | inconclusive: 10 µM [fluorescent, side channel, single point]
CCOC(=O)C1CCCN(C(=O)c2ccc(Cl)c(S(=O)(=O)N3CCCCCC3)c2)C1 (stereo unspecified) | – | inconclusive: 15.8 µM [fluorescent, side channel, single point]
O=C(Nc1nccs1)C1CCN(S(=O)(=O)c2ccc3c(c2)OCCCO3)CC1 | – | inconclusive: 1.26 µM [inhibitor, full curve, poor fit]
CN1CCN(CC(=O)N2CCn3c4c(c5cc(C6CCCCC6)ccc53)CCCC42)CC1 (stereo unspecified) | – | inconclusive: 31.6 µM [quencher, side channel, partial curve]
O=C1NCCCC2c3cc(O)c4ccccc4c3OC12N1CCCCC1 (stereo unspecified) | – | inconclusive: 31.6 µM [inhibitor, single point]
COc1ccc(N2CCN(Cc3cc(=O)oc4cc(-c5ccccc5)c(O)cc34)CC2)cc1 | inactive: 6.8% | –
Cn1c(N)c(S(=O)(=O)N2CCN(c3ccccc3F)CC2)c(=O)n(C)c1=O | – | inconclusive: 14.1 µM [fluorescent, side channel, single point]
CN(C)c1ccc(NC(=S)c2ccccn2)cc1 | inactive: 16.1% | –

Retrieved by compound from the entries so far (four):
SMILES | activity change, negative = inhibition | Potency
Cc1cc(C=C2C(=O)c3ccccc3C2=O)c(C)n1-c1ccccc1 | – | inconclusive: 35.5 µM [fluorescent, side channel, single point]
Cc1cc2nc(-c3ccc[nH]c3=O)n(Cc3ccc(F)cc3)c2cc1C | – | inconclusive: 10 µM [inhibitor, single point]
COc1ccc(N2CCN(Cc3cc(=O)oc4cc(-c5ccccc5)c(O)cc34)CC2)cc1 | inactive: 6.8% | –
c1ccc2[nH]c3cc4ncnc4cc3nc2c1 | – | inconclusive: 14.1 µM [inhibitor, single point]
